The results in this text go back to PMC3158767.

These are yes or no findings as the source states them, for the method shown. Binding seen in cells or lysates may run through a third protein. Some results given as binding are weak or reduced against the parent protein; the word gives no strength.

This assay addresses GST-Dp71 fusion protein (human) (UniProt P11532). The assay can be described thus: pull-down; GST or GST-Dp71 immobilised on glutathione-Sepharose beads, incubated overnight at 4°C with PC12 nuclear extract (1 mg of cell extract in RIPA buffer with 1% Triton X-100); immunoblot with anti-lamin B1; only the target purified.

B1: lamin B1 (endogenous, PC12 cells) (protein, UniProt P70615 1-587)
chain: MATATPVQQRAGSRASAPATPFSPTRLSRLQEKEELRELNDRLAVYIDKVRSLETENSALQLQVTEREEVRGRELTGLKALYETELADARRALDDTARERAKLQIELGKFKAEHDQLLLNYAKKESDLSGAQIKLREYEAALNSKDAALATALGDKKSLEGDLEDLKDQIAQLEASLSAAKKQLADETLLKVDLENRCQSLTEDLEFRKNMYEEEINETRRKHETRLVEVDSGRQIEYEYKLAQALHEMREQHDAQVRLYKEELEQTYHAKLENARLSSEMNTSTVNSARGGMMESRMRIESLSSQLSNLQKDSRACLERIQELEDMLAKERDNSRRMLSDKEREMAEIRDQMQQQLNDYEQLLDVKLALDMEISAYRKLLEGEEERLKLSPSPSSRVTVSRASSSRSVRTTRGKRKRVDVEESEASSSVSISHSASATGNVCIEEIDVDGKFIRLKNTSEQDQPMGGWEMIRKIGDTSVSYKYTSRYVLKAGQTVTVWAANAGVTASPPTDLIWKNQNSWGTGEDVKVVLKNSQGEEVAQRSTVFKTTIPEEEEEEEEEPIGVPLEEERFHQQGTPRASNKSCAIM
For the molecule B1, the binding entry was “binds”.
